Results: US20240197826A1

Experiments:
[1] = biological target: BMP-2 (Homo sapiens (Human)); test: SPR (Biacore T100), Tfr2-ECD immobilized, BMP 50 nM as analyte
[2] = biological target: BMP-4; test: as above
[3] = biological target: BMP-6; test: as above
[4] = biological target: BMP-7; test: as above
[5] = biological target: BMP-2 (Homo sapiens (Human)); test: SPR (Biacore T100), Tfr2-ECD immobilized on C1 chip, BMP 50 nM as analyte, 37 C
[6] = biological target: BMP-4; test: as above
[7] = biological target: BMP-6; test: as above
[8] = biological target: BMP-7; test: as above
[9] = biological target: BMP-2 (Homo sapiens (Human)); test: BMP-2-competitive ELISA; 1.5 ng/ml BMP-2 with increasing Tfr2-ECD, read by BMP-2 capture and detection antibodies

Measured: binding

B1: recombinant His-Tfr2-ECD (murine extracellular domains of Tfr2, aa 103-798, with 6x His tag) (receptor, not shown: small tags and cut ends)
chain: RGSCQACGDSVLVVDEDVNPEDSGRTTLYWSDLQAMFLRFLGEGRMEDTIRLTSLRERVAGSARMATLVQDILDKLSRQKLDHVWTDTHYVGLQFPDPAHANTLHWVDADGSVQEQLPLEDPEVYCPYSATGNATGKLVYAHYGRSEDLQDLKAKGVELAGSLLLVRVGITSFAQKVAVAQDFGAQGVLIYPDPSDFSQDPHKPGLSSHQAVYGHVHLGTGDPYTPGFPSFNQTQFPPVESSGLPSIPAQPISADIADQLLRKLTGPVAPQEWKGHLSGSPYRLGPGPDLRLVVNNHRVSTPISNIFACIEGFAEPDHYVVIGAQRDAWGPGAAKSAVGTAILLELVRTFSSMVSNGFRPRRSLLFISWDGGDFGSVGATEWLEGYLSVLHLKAVVYVSLDNSVLGDGKFHAKTSPLLVSLIENILKQVDSPNHSGQTLYEQVALTHPSWDAEVIQPLPMDSSAYSFTAFAGVPAVEFSFMEDDRVYPFLHTKEDTYENLHKMLRGRLPAVVQAVAQLAGQLLIRLSHDHLLPLDFGRYGDVVLRHIGNLNEFSGDLKERGLTLQWVYSARGDYIRAAEKLRKEIYSSERNDERLMRMYNVRIMRVEFYFLSQYVSPADSPFRHIFLGQGDHTLGALVDHLRMLRADGSGAASSRLTAGLGFQESRFRRQLALLTWTLQGAANALSGDVWNIDNNF
binds: all assays above

Results are given in words; binding and its absence hold for the method and conditions named. Binding can be weak; no strength is given. Where a sequence is shown, tags or fusion partners need not be part of it.
